About 22,000 (6.9%) of roughly 320,000 compounds were called active. The inconclusive results got no clear call from the source; some entries with a clear call stand among them for comparison. Calls come from the whole dose curve; as a rule, active = well fitted inhibition curve with a large enough effect; inconclusive = small, poorly fitted or top-dose-only effect, or another doubt; inactive = no such curve, though single readings can be large or run the other way. Potencies beside an inconclusive call are fits to weak or partial responses and may not hold up.
Experiment: Primary qHTS for delayed death inhibitors of the malarial parasite plastid, 96 hour incubation
Conditions: P. falciparum luciferase reporter growth; series mostly up to 28.7 µM
Summary of the method: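 Erythrocytes infected with luciferase-expressing P. falciparum were dispensed at 2% hematocrit and 0.05% parasitemia (final), then incubated with compounds 96 hours at 37 C in 5% CO2. Luminescence after detection reagent addition reported growth.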
% is set by controls: 0 for no effect and ±100 for the full control effect; potency is the fitted concentration of half-maximal effect.

| Structure (SMILES) | Potency | activity change, negative = inhibition |
| --- | --- | --- |
| CN1CCN(C(=O)c2ccc(CNS(=O)(=O)c3ccc(F)c(Cl)c3)cc2)CC1 | inconclusive: 18.5 µM [inhibitor, single point] | – |
| COc1ccc(C(=O)COc2ncnc3cc(Cl)ccc23)cc1 | inactive | – |
| CCN(CC)S(=O)(=O)c1cc(C(=O)OCC(=O)Nc2cccc(Br)c2)ccc1F | inactive | – |
| O=C(Oc1cccc2cccnc12)c1ccco1 | active: 1.31 µM | – |
| Cc1ccc(NC(=O)COc2ccccc2C(=O)NCc2ccccc2)cc1 | inconclusive: 16.5 µM [inhibitor, single point] | – |
| Cc1sc2ncnc(Sc3ccccc3C(=O)Nc3ccc(Br)cc3)c2c1C | active: 6.57 µM | – |
| O=S(=O)(NCc1ccccn1)c1cc(Cl)ccc1Cl | inactive | – |
| CS(=O)(=O)Nc1ccc(N2CCN(c3ccc(C(F)(F)F)cn3)CC2)nc1 | inactive | – |
| S=C(Nc1cccc(Cl)c1)Nc1cccc2cnccc12 | active: 4.15 µM | – |
| S=c1nc(-c2ccc(Br)cc2)[nH]c2ccccc12 | inconclusive: 10.4 µM [inhibitor, partial curve, poor fit] | – |
| NCCCn1c(C(=O)c2cc(Cl)c(N)c(Cl)c2)c2ccc(C(F)(F)F)cc2[n+]1[O-] | inconclusive: 5.86 µM [inhibitor, partial curve, poor fit] | – |
| O=C(/C=C/c1ccccc1)/C=C/c1ccccc1 | inconclusive: 14.7 µM [inhibitor, partial curve, poor fit] | – |
| Cc1[nH]n(C(C)(C)C)c(=O)c1Sc1ccccc1 | active: 11.7 µM | – |
| COc1cccc(/C=N/Nc2snc(SC)c2C#N)c1 | inconclusive: 0.37 µM [inhibitor, full curve, poor fit] | – |
| CCOc1cc(CNc2ccc(N3CCCCC3)cc2)cc(Br)c1OCC(=O)NC(C)(C)C | active: 13.1 µM | – |
| COc1ccc(N(Cc2cc(=O)[nH]c3ccccc23)C(=O)c2ccco2)cc1 | inconclusive: 18.5 µM [inhibitor, single point] | – |
| Cc1cccc(-c2nnc3sc(-c4ccccc4)nn23)c1 | active: 2.33 µM | – |
| COc1cc(C(=O)NCc2ccccc2)ccc1OC(F)F | inconclusive: 18.5 µM [inhibitor, single point] | – |
| CC(C)OCCCNC(=O)c1cc(-c2cccnc2)nc2ccccc12 | inactive | – |
| COc1cccc(CNC(=O)CCC2CCCN(Cc3ccc(OC(F)F)cc3)C2)c1 (stereo not drawn) | inconclusive: 18.5 µM [inhibitor, single point] | – |
| N#Cc1cc2cc3c(cc2nc1NCCNC(=S)NCCCN1CCOCC1)OCO3 | inconclusive: 18.5 µM [inhibitor, single point] | – |
| Cc1cccc(NC(=O)c2ccccc2OCC(=O)c2ccccc2)c1 | – | inactive: 20% [at 5.75 µM] |
| Cc1cc(C)c2cc(C=O)c(Cl)nc2c1 | inconclusive: 18.5 µM [inhibitor, single point] | – |
| COc1ccc(CN2CCN(Cc3ccc(C(F)(F)F)cc3)CC2)cc1 | inconclusive: 9.28 µM [inhibitor, partial curve, poor fit] | – |
| COc1ccc(OCCCC(=O)Nc2cccc(S(=O)(=O)N3CCCCCC3)c2)cc1 | inconclusive: 18.5 µM [inhibitor, single point] | – |

3 of these compounds in another layout.
Structure (SMILES) | Potency | activity change, negative = inhibition
COc1ccc(N(Cc2cc(=O)[nH]c3ccccc23)C(=O)c2ccco2)cc1 | inconclusive: 18.5 µM [inhibitor, single point] | –
Cc1cccc(-c2nnc3sc(-c4ccccc4)nn23)c1 | active: 2.33 µM | –
COc1cc(C(=O)NCc2ccccc2)ccc1OC(F)F | inconclusive: 18.5 µM [inhibitor, single point] | –

(listing goes on)

| Structure (SMILES) | Potency | activity change, negative = inhibition |
| --- | --- | --- |
| Cc1noc(C)c1COc1cccc(C(=O)Nc2ccccc2N2CCOCC2)c1 | active: 13.1 µM | – |
| O=C(NCCc1nc2ccccc2[nH]1)/C(=C/c1ccco1)NC(=O)c1ccco1 | inactive | – |
| CN(C)C1=NC[C@H](Cc2ccccc2)N1CC1CCC(C(C)(C)C)CC1 (stereo partly drawn) | inconclusive: 14.7 µM [inhibitor, partial curve, poor fit] | – |
| COc1cccc(-c2csc(N3CCC(C(N)=O)CC3)n2)c1 | inconclusive: 11.7 µM [activator, partial curve, poor fit] | – |
| O=C(NC1CCSc2ccccc21)c1cccc([N+](=O)[O-])c1 (stereo not drawn) | active: 2.33 µM | – |
| CCCCN(Cc1ccccc1)S(=O)(=O)c1ccc2[nH]c(=O)oc2c1 | inactive | – |
| CCOC(=O)c1cc2c(=O)[nH]ccc2nc1C(F)(F)F | active: 6.57 µM | – |
| COc1ccc(OC)c(C(c2nnnn2C2CCCC2)N2CCN(c3ccccc3)CC2)c1 (stereo not drawn) | inconclusive: 6.57 µM [inhibitor, partial curve] | – |
| Cc1oc(-c2ccc(Cl)cc2)nc1CS(=O)CC(=O)NCc1cccs1 (stereo not drawn) | inconclusive: 6.57 µM [inhibitor, partial curve, poor fit] | – |
| Cc1cnc(C(=O)Oc2cccc(Cl)c2Cl)cn1 | inactive | – |
| Cc1cccc(NC(=O)c2ccco2)c1C | active: 10.4 µM | – |
| COc1ccc(CCC(=O)NCC23CC4CC(CC(C4)C2)C3)cc1 | inactive | – |
| C=CCOc1ccc(/C=C/C(=O)OCC(=O)N2CCCc3ccccc32)cc1 | inactive | – |
| COc1ccc(CCNC(=O)c2ccccc2NC(=O)C2=C(C)OCCS2)c(OC)c1 | inconclusive: 13.1 µM [inhibitor, single point] | – |
| CC1CCCN(S(=O)(=O)c2cnc[nH]2)C1 (stereo not drawn) | inactive | – |
| COc1ccc(N(C(C)C(=O)N/N=C/c2ccc(OC)c(OC)c2)S(C)(=O)=O)cc1 (stereo not drawn) | inconclusive: 0.465 µM [inhibitor, full curve] | – |
| Cc1ccc(C(NC(=O)N2CCCC2)C(Cl)(Cl)Cl)cc1F (stereo not drawn) | active: 8.28 µM | – |
| CC1CCCCC1NC(=O)Cn1[nH]c(=O)c2ccccc2c1=O (stereo not drawn) | inconclusive: 18.5 µM [inhibitor, single point] | – |
| COc1ccccc1NC(=O)CN1CCCCCC1 | inactive | – |
| COC(=O)c1cccnc1-n1c(=O)c2cccnc2n(CC(=O)Nc2ccc(Br)cc2)c1=O | inactive | – |
| O=C(O)c1cc2c(s1)CCCC2 | inactive | – |
| COCc1c(C(=O)N2CCN(S(=O)(=O)c3ccccc3Cl)CC2)oc2ccccc12 | inconclusive: 11.7 µM [inhibitor, single point] | – |
| CC(C)c1ccc(NC(=S)N(C)CCc2ccccn2)cc1 | – | inactive: 56% [at 5.75 µM] |
| c1ccc(-c2nnc(-c3ccco3)n2-c2ccccc2)cc1 | inactive | – |
| CCCNC(=O)c1noc2c1CCc1ccccc1-2 | inactive | – |

| Structure (SMILES) | Potency | activity change, negative = inhibition |
| --- | --- | --- |
| CCNC(=S)N1CCCC(c2nc3ccc(C)cc3[nH]2)C1 (stereo not drawn) | inactive | – |
| COc1ccccc1N/C(=N/S(=O)(=O)c1ccc(C)cc1)c1ccc(Cl)cc1 | inconclusive: 10.4 µM [inhibitor, partial curve] | – |
| Cc1cc(C=O)c(C)n1-c1cc(C(=O)O)cc(C(=O)O)c1 | inconclusive: 18.5 µM [inhibitor, single point] | – |
| O=C(Nc1cccnc1)c1cccc(S(=O)(=O)Nc2ccccc2F)c1 | inconclusive: 9.28 µM [inhibitor, partial curve] | – |
| CC(=O)N/C(=C\c1ccccc1)C(=O)OCC(=O)Nc1cc(S(=O)(=O)N(C)C)ccc1C | inconclusive: 11.7 µM [inhibitor, partial curve, poor fit] | – |
| Cc1cc(NS(=O)(=O)c2ccc(NC(=O)/C=C/c3ccc(C)o3)cc2)nc(C)n1 | active: 7.38 µM | – |
| CON/C=C(\C=Nc1ccc(C(F)(F)F)cc1)c1ncc(C(F)(F)F)cc1Cl | inconclusive: 1.65 µM [inhibitor, single point] | – |
| CCN(C(=O)Cc1nc(N)n[nH]1)C1(C(=O)Nc2ccccc2)CCCCC1 | inconclusive: 2.94 µM [inhibitor, partial curve, poor fit] | – |
| CCCOc1ccc(NC(=O)C2OC3OC(C)(C)OC3C3OC(C)(C)OC23)cc1 (stereo not drawn) | active: 10.4 µM | – |
| CCCC(=O)n1nc(-c2cccnc2)nc1NCc1cccs1 | inconclusive: 16.5 µM [inhibitor, single point] | – |
| CCc1cccc2c(C(=O)COC(=O)c3ccc([N+](=O)[O-])s3)c[nH]c12 | inconclusive: 18.5 µM [inhibitor, partial curve, poor fit] | – |
| Cc1ccc(C(=O)N2CCN3C(=O)c4ccccc4C23c2ccccc2)cc1 (stereo not drawn) | inconclusive: 10.4 µM [inhibitor, partial curve, poor fit] | – |
| Cc1ccc(S(=O)(=O)Nc2ccc3cn[nH]c3c2)c(C)c1 | inactive | – |
| O=C(c1cccs1)N1CCC(c2nc3c(nnn3Cc3c(Cl)cccc3Cl)c(=O)[nH]2)CC1 | inconclusive: 11.7 µM [inhibitor, single point] | – |
| O=C1CCCCN1CCc1c[nH]c2ccccc12 | inactive | – |
| Cc1ncoc1C(=O)NC1CCCc2c1cnn2-c1ccc(C(C)(C)C)cc1 (stereo not drawn) | inactive | – |
| COc1ccccc1NC(=O)Nc1nnc(CC(=O)Nc2ccccc2)s1 | inactive | – |
| CC(C)(C)n1nnnc1C(c1cccs1)N1CCCC2(CCCCC2)C1 (stereo not drawn) | inconclusive: 10.4 µM [inhibitor, partial curve, poor fit] | – |
| CCOC(=O)[C@H]1[C@H]2COc3ccc(OC)cc3[C@@H]2N2C(=O)CN(CCc3c[nH]c4ccccc34)C(=O)[C@@]12C | inconclusive: 5.22 µM [inhibitor, partial curve, poor fit] | – |
| Cc1ccccc1CC(=O)NCCN1CCOCC1 | inconclusive: 18.5 µM [inhibitor, partial curve, poor fit] | – |
| CCN1C(=O)[C@H]2[C@@H](c3ccc(-c4ccc(OC)cc4)cc3)N[C@@](CC(C)C)(C(=O)OC)[C@H]2C1=O | active: 11.7 µM | – |
| COC(=O)c1ccc(C23CC4(C2)[C@H](CN(Cc2ccc(-c5ccccc5)cc2)[C@@H]4c2ccccc2)C3c2ccccc2)cc1 (stereo partly drawn) | inconclusive: 18.5 µM [inhibitor, single point] | – |
| Cc1cc(C)nc(N/N=C/c2ccccc2OCc2ccc(Cl)cc2)n1 | inconclusive: 18.5 µM [inhibitor, single point] | – |

From PubChem BioAssay AID504834 (National Center for Advancing Translational Sciences (NCATS), 2011)
